Results are given in words; binding and its absence hold for the method and conditions named. Binding seen in cells or lysates may run through a third protein. These calls come from enrichment with a bait or labelling near it, and not all partners need be listed. For part of these data: A no says only that the protein was not detected with the bait.

Common to all, as to experiment: affinity purification with mass spectrometry; Halo-tagged bait expressed in 293T cells, Halo affinity purification from extracts, MudPIT; for SETD2C also from extracts of cells depleted of hnRNP L
Experiment [1] addresses T1, Halo-SETD2C (1404–2564) (human) (UniProt Q9BYW2).
T1 sequence: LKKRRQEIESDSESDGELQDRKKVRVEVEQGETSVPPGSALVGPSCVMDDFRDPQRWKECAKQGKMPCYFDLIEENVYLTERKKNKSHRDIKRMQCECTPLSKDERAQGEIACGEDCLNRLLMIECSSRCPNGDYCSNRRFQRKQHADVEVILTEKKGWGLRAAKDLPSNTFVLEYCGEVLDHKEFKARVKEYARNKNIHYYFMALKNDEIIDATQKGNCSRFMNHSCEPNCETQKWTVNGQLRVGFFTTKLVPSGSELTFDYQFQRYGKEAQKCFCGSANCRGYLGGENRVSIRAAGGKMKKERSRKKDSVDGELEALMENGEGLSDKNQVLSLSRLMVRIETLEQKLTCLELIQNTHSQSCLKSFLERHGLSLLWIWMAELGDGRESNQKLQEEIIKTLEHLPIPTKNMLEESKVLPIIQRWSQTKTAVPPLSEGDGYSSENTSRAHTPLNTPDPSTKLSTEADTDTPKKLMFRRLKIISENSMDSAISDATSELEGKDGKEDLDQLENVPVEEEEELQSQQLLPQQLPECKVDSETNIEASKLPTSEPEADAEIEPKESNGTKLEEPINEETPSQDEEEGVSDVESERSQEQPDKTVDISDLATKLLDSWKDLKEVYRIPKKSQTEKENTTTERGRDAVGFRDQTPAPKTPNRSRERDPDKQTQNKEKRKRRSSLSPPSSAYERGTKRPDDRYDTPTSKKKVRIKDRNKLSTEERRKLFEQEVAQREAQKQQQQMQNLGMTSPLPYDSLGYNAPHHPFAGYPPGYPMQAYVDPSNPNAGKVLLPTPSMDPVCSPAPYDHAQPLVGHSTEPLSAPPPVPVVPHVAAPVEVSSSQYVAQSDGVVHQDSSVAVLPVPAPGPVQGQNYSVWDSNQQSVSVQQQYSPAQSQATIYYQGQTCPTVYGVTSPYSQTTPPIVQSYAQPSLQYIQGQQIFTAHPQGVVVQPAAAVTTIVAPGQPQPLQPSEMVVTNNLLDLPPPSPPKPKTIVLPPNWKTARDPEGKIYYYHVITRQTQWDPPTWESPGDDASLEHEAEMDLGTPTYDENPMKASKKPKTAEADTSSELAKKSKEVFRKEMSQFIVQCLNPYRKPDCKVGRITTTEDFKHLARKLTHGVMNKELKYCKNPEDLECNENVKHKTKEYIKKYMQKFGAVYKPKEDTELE

For experiment [2], the target named is T2, Halo-SETD2C L2188A L2189A (human) (UniProt Q9BYW2).
T2 sequence: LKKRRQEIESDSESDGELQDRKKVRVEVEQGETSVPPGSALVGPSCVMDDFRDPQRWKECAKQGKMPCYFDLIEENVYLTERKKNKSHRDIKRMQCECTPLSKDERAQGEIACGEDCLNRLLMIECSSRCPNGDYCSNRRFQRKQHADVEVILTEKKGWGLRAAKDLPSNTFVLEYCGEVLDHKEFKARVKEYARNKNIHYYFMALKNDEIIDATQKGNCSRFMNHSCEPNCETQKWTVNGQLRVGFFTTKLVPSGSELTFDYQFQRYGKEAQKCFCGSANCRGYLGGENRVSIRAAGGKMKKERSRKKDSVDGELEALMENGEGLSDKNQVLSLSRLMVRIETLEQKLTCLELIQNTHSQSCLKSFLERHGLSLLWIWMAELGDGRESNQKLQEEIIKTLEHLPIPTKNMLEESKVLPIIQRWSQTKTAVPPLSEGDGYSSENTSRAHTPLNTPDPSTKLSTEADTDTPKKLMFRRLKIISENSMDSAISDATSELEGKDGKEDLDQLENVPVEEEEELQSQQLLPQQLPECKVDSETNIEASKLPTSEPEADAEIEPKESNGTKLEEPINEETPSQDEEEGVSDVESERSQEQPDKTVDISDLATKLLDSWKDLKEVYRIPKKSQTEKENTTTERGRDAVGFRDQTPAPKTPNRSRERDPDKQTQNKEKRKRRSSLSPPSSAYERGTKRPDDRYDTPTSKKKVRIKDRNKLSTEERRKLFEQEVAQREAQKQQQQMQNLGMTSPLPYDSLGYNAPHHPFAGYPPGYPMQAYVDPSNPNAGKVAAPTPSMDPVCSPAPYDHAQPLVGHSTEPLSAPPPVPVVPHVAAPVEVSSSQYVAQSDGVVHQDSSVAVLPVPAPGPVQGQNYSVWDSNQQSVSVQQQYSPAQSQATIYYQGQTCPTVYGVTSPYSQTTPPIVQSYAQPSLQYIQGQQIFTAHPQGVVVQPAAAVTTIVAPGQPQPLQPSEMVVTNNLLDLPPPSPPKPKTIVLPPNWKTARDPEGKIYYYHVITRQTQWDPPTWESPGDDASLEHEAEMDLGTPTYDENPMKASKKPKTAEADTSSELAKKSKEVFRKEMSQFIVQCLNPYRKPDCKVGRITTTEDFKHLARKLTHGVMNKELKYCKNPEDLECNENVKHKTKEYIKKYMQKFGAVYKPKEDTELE

The target of the next experiment is T3, Halo-ySet2 (yeast) (UniProt P46995).
T3 sequence: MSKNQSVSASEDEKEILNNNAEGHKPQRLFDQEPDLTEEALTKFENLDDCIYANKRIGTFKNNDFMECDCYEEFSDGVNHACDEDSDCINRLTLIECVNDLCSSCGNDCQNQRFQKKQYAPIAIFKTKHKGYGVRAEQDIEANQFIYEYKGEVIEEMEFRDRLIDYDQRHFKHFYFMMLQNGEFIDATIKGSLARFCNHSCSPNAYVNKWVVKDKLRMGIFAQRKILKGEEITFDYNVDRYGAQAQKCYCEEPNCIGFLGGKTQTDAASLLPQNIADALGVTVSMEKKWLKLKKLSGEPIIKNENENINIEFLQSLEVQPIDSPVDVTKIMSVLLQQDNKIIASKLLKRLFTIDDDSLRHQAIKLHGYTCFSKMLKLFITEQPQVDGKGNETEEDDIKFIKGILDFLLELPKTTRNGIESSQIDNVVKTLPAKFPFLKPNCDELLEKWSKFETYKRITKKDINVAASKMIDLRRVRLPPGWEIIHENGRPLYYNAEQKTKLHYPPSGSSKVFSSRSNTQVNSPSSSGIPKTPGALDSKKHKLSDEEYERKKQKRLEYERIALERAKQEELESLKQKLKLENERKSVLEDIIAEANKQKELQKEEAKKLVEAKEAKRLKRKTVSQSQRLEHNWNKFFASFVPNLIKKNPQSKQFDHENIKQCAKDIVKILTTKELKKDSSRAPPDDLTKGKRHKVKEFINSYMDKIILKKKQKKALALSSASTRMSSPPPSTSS

B1: hnRNP L (endogenous) (protein, UniProt P14866 1-589)
chain: MSRRLLPRAEKRRRRLEQRQQPDEQRRRSGAMVKMAAAGGGGGGGRYYGGGSEGGRAPKRLKTDNAGDQHGGGGGGGGGAGAAGGGGGGENYDDPHKTPASPVVHIRGLIDGVVEADLVEALQEFGPISYVVVMPKKRQALVEFEDVLGACNAVNYAADNQIYIAGHPAFVNYSTSQKISRPGDSDDSRSVNSVLLFTILNPIYSITTDVLYTICNPCGPVQRIVIFRKNGVQAMVEFDSVQSAQRAKASLNGADIYSGCCTLKIEYAKPTRLNVFKNDQDTWDYTNPNLSGQGDPGSNPNKRQRQPPLLGDHPAEYGGPHGGYHSHYHDEGYGPPPPHYEGRRMGPPVGGHRRGPSRYGPQYGHPPPPPPPPEYGPHADSPVLMVYGLDQSKMNCDRVFNVFCLYGNVEKVKFMKSKPGAAMVEMADGYAVDRAITHLNNNFMFGQKLNVCVSKQPAIMPGQSYGLEDGSCSYKDFSESRNNRFSTPEQAAKNRIQHPSNVLHFFNAPLEVTEENFFEICDELGVKRPSSVKVFSGKSERSSSGLLEWESKSDALETLGFLNHYQMKNPNGPYPYTLKLCFSTAQHAS
Consider B1, for which the binding entry in experiment [1] is “binds”; in experiment [2], “no binding”.

B2: hnRNP LL (endogenous) (protein, UniProt Q8WVV9 1-542)
chain: MSSSSSSPRETYEEDREYESQAKRLKTEEGEIDYSAEEGENRREATPRGGGDGGGGGRSFSQPEAGGSHHKVSVSPVVHVRGLCESVVEADLVEALEKFGTICYVMMMPFKRQALVEFENIDSAKECVTFAADEPVYIAGQQAFFNYSTSKRITRPGNTDDPSGGNKVLLLSIQNPLYPITVDVLYTVCNPVGKVQRIVIFKRNGIQAMVEFESVLCAQKAKAALNGADIYAGCCTLKIEYARPTRLNVIRNDNDSWDYTKPYLGRRDRGKGRQRQAILGEHPSSFRHDGYGSHGPLLPLPSRYRMGSRDTPELVAYPLPQASSSYMHGGNPSGSVVMVSGLHQLKMNCSRVFNLFCLYGNIEKVKFMKTIPGTALVEMGDEYAVERAVTHLNNVKLFGKRLNVCVSKQHSVVPSQIFELEDGTSSYKDFAMSKNNRFTSAGQASKNIIQPPSCVLHYYNVPLCVTEETFTKLCNDHEVLTFIKYKVFDAKPSAKTLSGLLEWECKTDAVEALTALNHYQIRVPNGSNPYTLKLCFSTSSHL
As for B2, the binding result with Halo-ySet2 (yeast) is recorded as “no binding”.

The record behind these values is publication PMC8575775, “Structural basis of the interaction between SETD2 methyltransferase and hnRNP L paralogs for governing co-transcriptional splicing” (Nature Communications, 2021).
